The values that follow come from paper PMC5503561.

Amino acid sequences for entries named in this document (tags omitted). A change or cut given only in a name is not applied to a line headed by its entry.
UniProt P55085: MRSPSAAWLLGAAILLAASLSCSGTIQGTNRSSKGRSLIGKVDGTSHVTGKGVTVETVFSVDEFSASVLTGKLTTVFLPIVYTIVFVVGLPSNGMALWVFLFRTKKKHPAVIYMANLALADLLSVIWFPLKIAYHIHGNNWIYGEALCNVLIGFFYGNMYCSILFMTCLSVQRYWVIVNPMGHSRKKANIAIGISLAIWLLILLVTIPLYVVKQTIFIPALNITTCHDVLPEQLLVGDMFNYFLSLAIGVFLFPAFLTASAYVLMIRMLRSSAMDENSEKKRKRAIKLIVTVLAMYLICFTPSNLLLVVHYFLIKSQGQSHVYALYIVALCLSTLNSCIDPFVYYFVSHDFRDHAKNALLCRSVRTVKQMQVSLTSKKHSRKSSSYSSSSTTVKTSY
UniProt O15169: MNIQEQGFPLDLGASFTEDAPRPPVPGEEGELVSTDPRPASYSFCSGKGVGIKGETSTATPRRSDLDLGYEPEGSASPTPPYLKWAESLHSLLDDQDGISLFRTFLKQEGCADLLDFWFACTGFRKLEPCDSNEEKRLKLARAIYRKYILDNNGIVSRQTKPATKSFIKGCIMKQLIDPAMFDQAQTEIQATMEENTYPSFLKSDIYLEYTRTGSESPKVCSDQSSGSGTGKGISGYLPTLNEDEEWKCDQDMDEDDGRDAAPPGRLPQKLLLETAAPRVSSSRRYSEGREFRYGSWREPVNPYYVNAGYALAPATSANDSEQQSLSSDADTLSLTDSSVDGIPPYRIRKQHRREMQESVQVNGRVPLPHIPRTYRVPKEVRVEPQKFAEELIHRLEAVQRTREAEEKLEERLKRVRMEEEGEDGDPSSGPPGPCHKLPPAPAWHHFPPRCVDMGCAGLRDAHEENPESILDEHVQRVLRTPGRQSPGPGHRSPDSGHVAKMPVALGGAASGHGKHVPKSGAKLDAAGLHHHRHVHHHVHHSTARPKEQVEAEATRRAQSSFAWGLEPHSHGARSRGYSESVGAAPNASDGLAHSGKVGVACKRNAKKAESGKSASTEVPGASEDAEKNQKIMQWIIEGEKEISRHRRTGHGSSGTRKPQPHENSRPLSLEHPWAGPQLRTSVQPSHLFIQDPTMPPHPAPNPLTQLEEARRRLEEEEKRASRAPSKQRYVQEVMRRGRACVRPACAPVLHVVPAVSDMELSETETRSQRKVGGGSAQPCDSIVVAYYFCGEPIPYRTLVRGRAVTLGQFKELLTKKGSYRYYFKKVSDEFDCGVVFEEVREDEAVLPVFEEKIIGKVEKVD

This assay concerns the target Protease-activated receptor-2 (PAR2), wt hPar2 (human) (UniProt P55085). The assay can be described thus: co-IP; HEK293T cells transiently transfected, activated with SLIGKV (5 to 30 min); 400 ug cell lysate, antibody to the bait (anti-PAR2, anti-GFP or anti-flg) overnight, protein A-Sepharose 1 h at 4°C, Western blot. Background: A western blot detects proteins with antibodies after separation by electrophoresis.

These are yes or no findings as the source states them, for the method shown. Binding seen in cells or lysates may run through a third protein. Binding calls can cover weak binding; strength is not graded here.

As to flg-Axin (from UniProt O15169 1-862), the binding entry is given as “binds”.
